PubChem BioAssay AID1224830, NIAID – 2016
This is one part, drawn at random, of about 18,000 reagents. About 2,900 of them (16%) count as active. 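Calls are made per well; low scores hint the gene aids the LPS response, high scores that it dampens it.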 A number with no mark means an inactive call. Repeated entries: four replicate wells of each siRNA pool.

- Aim: 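Genes whose knock-down alters the TNF-alpha reporter response to LPS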 (primary screen)
- Cells: human THP-1 monocytic leukaemia cells, TNF dual-luciferase reporter clone, PMA-differentiated to macrophage-like cells
- Reagents: siRNA pool against human genes, 50 nM
- Time to read-out: LPS for 4 h, given about 3 days after siRNA transfection
- Treatment: bacterial LPS (TLR4 ligand), 10 ng/ml
- Measurement: 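Ratio of firefly to renilla light, scaled to the plate median and expressed as a robust z-score per replicate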
- Scale: TNF reporter robust z-score: higher = stronger TNF reporter response to LPS
- Call rule: 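a well is active when its z-score exceeds 2.8 or falls below -1.5; control wells carry no call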

no.	Gene	TNF reporter robust z-score
1	DEF6 (GeneID 50619)	0.06
2	DEF6 (GeneID 50619)	0.34
3	DEF6 (GeneID 50619)	-1.07
4	DEF6 (GeneID 50619)	0.46
5	CCL16 (GeneID 6360)	0.34
6	CCL16 (GeneID 6360)	0.05
7	CCL16 (GeneID 6360)	1.54
8	CCL16 (GeneID 6360)	1.28
9	DEFB121 (GeneID 245934)	0.39
10	DEFB121 (GeneID 245934)	2.67
11	DEFB121 (GeneID 245934)	0.3
12	DEFB121 (GeneID 245934)	0.63
13	CTIF (GeneID 9811)	0.57
14	CTIF (GeneID 9811)	-0.91
15	CTIF (GeneID 9811)	-0.92
16	CTIF (GeneID 9811)	-1.02
17	CLEC4C (GeneID 170482)	0.01
18	CLEC4C (GeneID 170482)	0.57
19	CLEC4C (GeneID 170482)	-0.03
20	CLEC4C (GeneID 170482)	0.23
21	ZNF787 (GeneID 126208)	-0.35
22	ZNF787 (GeneID 126208)	1.3
23	ZNF787 (GeneID 126208)	0.3
24	ZNF787 (GeneID 126208)	0.89
25	NBN (GeneID 4683)	-1.14
26	NBN (GeneID 4683)	0.1
27	NBN (GeneID 4683)	0.01
28	NBN (GeneID 4683)	-0.78
29	S100A13 (GeneID 6284)	0.27
30	S100A13 (GeneID 6284)	1.02
31	S100A13 (GeneID 6284)	0.07
32	S100A13 (GeneID 6284)	0.7
33	EPB42 (GeneID 2038)	0
34	EPB42 (GeneID 2038)	1.52
35	EPB42 (GeneID 2038)	0.01
36	EPB42 (GeneID 2038)	0.4
37	CBR1 (GeneID 873)	-1.09
38	CBR1 (GeneID 873)	-0.38
39	CBR1 (GeneID 873)	-0.99
40	CBR1 (GeneID 873)	-0.55
41	ZIC3 (GeneID 7547)	0.9
42	ZIC3 (GeneID 7547)	1.15
43	ZIC3 (GeneID 7547)	0.12
44	ZIC3 (GeneID 7547)	1.54
45	PRKRIP1 (GeneID 79706)	-0.66
46	PRKRIP1 (GeneID 79706)	0.53
47	PRKRIP1 (GeneID 79706)	-0.34
48	PRKRIP1 (GeneID 79706)	0.69
49	PPT1 (GeneID 5538)	1.33
50	PPT1 (GeneID 5538)	1.06
51	PPT1 (GeneID 5538)	1.72
52	PPT1 (GeneID 5538)	1.38
53	APOL2 (GeneID 23780)	-0.28
54	APOL2 (GeneID 23780)	0.98
55	APOL2 (GeneID 23780)	1.51
56	SMN1 (GeneID 6606)	-0.35
57	SMN1 (GeneID 6606)	0.26
58	SMN1 (GeneID 6606)	0.36
59	SMN1 (GeneID 6606)	0.49
60	STK11 (GeneID 6794)	-0.45
61	STK11 (GeneID 6794)	0.37
62	STK11 (GeneID 6794)	-0.74
63	STK11 (GeneID 6794)	0.26
64	PLA2G4F (GeneID 255189)	-1.29
65	PLA2G4F (GeneID 255189)	-0.9
66	PLA2G4F (GeneID 255189)	-0.57
67	PLA2G4F (GeneID 255189)	-0.2
68	SPDEF (GeneID 25803)	-0.79
69	SPDEF (GeneID 25803)	-0.5
70	SPDEF (GeneID 25803)	-0.7
71	SPDEF (GeneID 25803)	0.76
72	RECQL4 (GeneID 9401)	-1.76 (active)
73	RECQL4 (GeneID 9401)	-1.25
74	RECQL4 (GeneID 9401)	-1.35
75	RECQL4 (GeneID 9401)	-1.36

Not a retest: entries from further up.
no.	Gene	TNF reporter robust z-score
47	PRKRIP1 (GeneID 79706)	-0.34
48	PRKRIP1 (GeneID 79706)	0.69
49	PPT1 (GeneID 5538)	1.33
50	PPT1 (GeneID 5538)	1.06
51	PPT1 (GeneID 5538)	1.72
52	PPT1 (GeneID 5538)	1.38
53	APOL2 (GeneID 23780)	-0.28
54	APOL2 (GeneID 23780)	0.98
